# In patent US10072023B2, “Diarylethene compounds and uses thereof” (SWITCH MATERIALS, INC., priority 2011, dated 2018):
# Test: Electrochemical switching (Switch: reversible photochromic/electrochromic conversion)
# Type: physicochemical
# Parameters: key: Y: “Switch” refers to the ability (yes or no) of the compound to be reversibly converted under photochromic and electrochromic conditions between a ring-open isomer and ring-closed isomer
# Settings: reversibly converted under photochromic and electrochromic conditions
row,Structure (SMILES),Switch
1,"CC(C)CCOc1ccc(-c2cc(C3=C(c4cc(-c5ccc(OCCC(C)C)cc5)sc4-c4ccc(OCCC(C)C)cc4)C(F)(F)C(F)(F)C3(F)F)c(-c3ccc(OCCC(C)C)cc3)s2)cc1 [S094, 3,3′-(perfluorocyclopent-1-ene-1,2-diyl)bis(2,5-bis(4-(isopentyloxy)phenyl)thiophene)]",Y
2,"CC(C)(C)COc1ccc(-c2cc(C3=C(c4cc(-c5ccc(OCC(C)(C)C)cc5)sc4-c4ccc(OCC(C)(C)C)cc4)C(F)(F)C(F)(F)C3(F)F)c(-c3ccc(OCC(C)(C)C)cc3)s2)cc1 [S095, 3,3′-(perfluorocyclopent-1-ene-1,2-diyl)bis(2,5-bis(4-(neopentyloxy)phenyl)thiophene)]",Y
3,"COc1cccc(-c2cc(C3=C(c4cc(-c5cccc(OC)c5)sc4-c4cccc(OC)c4)C(F)(F)C(F)(F)C3(F)F)c(-c3cccc(OC)c3)s2)c1 [S096, 3,3′-(perfluorocyclopent-1-ene-1,2-diyl)bis(2,5-bis(3-methoxyphenyl)thiophene)]",Y
4,"COc1cc(OC)cc(-c2cc(C3=C(c4cc(-c5cc(OC)cc(OC)c5)sc4-c4cc(OC)cc(OC)c4)C(F)(F)C(F)(F)C3(F)F)c(-c3cc(OC)cc(OC)c3)s2)c1 [S097, 3,3′-(perfluorocyclopent-1-ene-1,2-diyl)bis(2,5-bis(3,5-dimethoxyphenyl)thiophene)]",Y
5,"COCCOc1ccc(-c2sc(-c3ccc(C(C)(C)C)s3)cc2C2=C(c3cc(-c4ccc(C(C)(C)C)s4)sc3-c3ccc(OCCOC)cc3)C(F)(F)C(F)(F)C2(F)F)cc1 [S104, 4,4″-(perfluorocyclopent-1-ene-1,2-diyl)bis(5′-(tert-butyl)-5-(4-(2-methoxyethoxy)phenyl)-2,2′-bithiophene)]",Y
6,"CC(C)(C)c1ccc(-c2cc(C3=C(c4cc(-c5ccc(C(C)(C)C)s5)sc4-c4ccc(O)cc4)C(F)(F)C(F)(F)C3(F)F)c(-c3ccc(O)cc3)s2)s1 [S105, 4,4′-(4,4″-(perfluorocyclopent-1-ene-1,2-diyl)bis(5′-(tert-butyl)-[2,2′-bithiophene]-5,4-diyl))diphenol]",Y
7,COCCOCCOCCOc1ccc(-c2sc(-c3ccc(C(C)(C)C)s3)cc2C2=C(c3cc(-c4ccc(C(C)(C)C)s4)sc3-c3ccc(OCCOCCOCCOC)cc3)C(F)(F)C(F)(F)C2(F)F)cc1 [S108],Y
8,"CCOCCOCCOCCOc1ccc(-c2sc(-c3ccc(C(C)(C)C)s3)cc2C2=C(c3cc(-c4ccc(C(C)(C)C)s4)sc3-c3ccc(OCCOCCOCCOCC)cc3)C(F)(F)C(F)(F)C2(F)F)cc1 [S109, 4,4″-(perfluorocyclopent-1-ene-1,2-diyl)bis(5′-(tert-butyl)-5-(4-(2-(2-(2-ethoxyethoxy)ethoxy)ethoxy)phenyl)-2,2′-bithiophene)]",Y
9,"COc1ccc(-c2sc(-c3cc4ccccc4s3)cc2C2=C(c3cc(-c4cc5ccccc5s4)sc3-c3ccc(OC)cc3)C(F)(F)C(F)(F)C2(F)F)cc1 [S110, 2,2′-(4,4′-(perfluorocyclopent-1-ene-1,2-diyl)bis(5-(4-methoxyphenyl)thiophene-4,2-diyl))bis(benzo[b]thiophene)]",Y
10,"CC(C)(C)c1ccc(-c2cc(C3=C(c4cc(-c5ccc(C(C)(C)C)s5)sc4-c4ccc(OCCCO)cc4)C(F)(F)C(F)(F)C3(F)F)c(-c3ccc(OCCCO)cc3)s2)s1 [S111, 3,3′-(4,4′-(4,4′-(perfluorocyclopent-1-ene-1,2-diyl)bis(5′-tert-butyl-2,2′-bithiophene-5,4-diyl))bis(4,1-phenylene)bis(oxy))dipropan-1-ol]",Y
11,"CC(C)(C)c1ccc(-c2cc(C3=C(c4cc(-c5ccc(C(C)(C)C)s5)sc4-c4ccc(N5CCOCC5)cc4)C(F)(F)C(F)(F)C3(F)F)c(-c3ccc(N4CCOCC4)cc3)s2)s1 [S112, 4,4′-((4,4″-(perfluorocyclopent-1-ene-1,2-diyl)bis(5′-(tert-butyl)-[2,2′-bithiophene]-5,4-diyl))bis(4,1-phenylene))dimorpholine]",Y
12,CC(C)(C)c1ccc(-c2cc(C3=C(c4cc(-c5ccc(C(C)(C)C)s5)sc4-c4ccc(O[Si](O[Si](C)(C)C)(O[Si](C)(C)C)O[Si](C)(C)C)cc4)C(F)(F)C(F)(F)C3(F)F)c(-c3ccc(O[Si](O[Si](C)(C)C)(O[Si](C)(C)C)O[Si](C)(C)C)cc3)s2)s1 [S118],Y
13,CC(C)(C)c1ccc(-c2cc(C3=C(c4cc(-c5ccc(C(C)(C)C)s5)sc4-c4ccc(C(=O)O)s4)C(F)(F)C(F)(F)C3(F)F)c(-c3ccc(C(=O)O)s3)s2)s1 [S119],Y
14,CC(C)(C)c1ccc(-c2cc(C3=C(c4cc(-c5sc(C(C)(C)C)cc5C(=O)O)sc4-c4ccc(C(=O)O)s4)C(F)(F)C(F)(F)C3(F)F)c(-c3ccc(C(=O)O)s3)s2)s1 [S124],Y
15,"CCOCCOCCOCCOC(CC)(CC)c1ccc(-c2sc(-c3ccc(C(C)(C)C)s3)cc2C2=C(c3cc(-c4ccc(C(C)(C)C)s4)sc3-c3ccc(C(CC)(CC)OCCOCCOCCOCC)s3)C(F)(F)C(F)(F)C2(F)F)s1 [S128, 13,13′-(3′,3″″-(perfluorocyclopent-1-ene-1,2-diyl)bis(5″-(tert-butyl)-[2,2′: 5′,2″-terthiophene]-5,3′-diyl))bis(13-ethyl-3,6,9,12-tetraoxapentadecane)]",Y
16,"C[Si](C)(C)c1ccc(-c2cc(C3=C(c4cc(-c5ccc([Si](C)(C)C)s5)sc4-c4ccc([Si](C)(C)C)s4)C(F)(F)C(F)(F)C3(F)F)c(-c3ccc([Si](C)(C)C)s3)s2)s1 [S135, 3′,3″″-(perfluorocyclopent-1-ene-1,2-diyl)bis(5,5″-bis(trimethylsilyl)-2,2′:5′,2″-terthiophene)]",Y
17,"Cc1ccc(-c2oc3ccccc3c2C2=C(c3c(-c4ccc(C)s4)oc4ccccc34)C(F)(F)C(F)(F)C2(F)F)s1 [S137, 3,3′-(perfluorocyclopent-1-ene-1,2-diyl)bis(2-(5-methylthiophen-2-yl)benzofuran)]",Y
18,COCCC[Si](CCCOC)(CCCOC)c1ccc(-c2cc(C3=C(c4cc(-c5ccc([Si](CCCOC)(CCCOC)CCCOC)s5)sc4-c4ccc([Si](CCCOC)(CCCOC)CCCOC)s4)C(F)(F)C(F)(F)C3(F)F)c(-c3ccc([Si](CCCOC)(CCCOC)CCCOC)s3)s2)s1 [S138],Y
19,"CC(C)(C)c1ccc(-c2cc(C3=C(c4cc(-c5ccc(C(C)(C)C)s5)sc4-c4ccc(OCCCCC#N)cc4)C(F)(F)C(F)(F)C3(F)F)c(-c3ccc(OCCCCC#N)cc3)s2)s1 [S139, 5,5′-(((4,4″-(perfluorocyclopent-1-ene-1,2-diyl)bis(5′-(tert-butyl)-[2″,2″′-bithiophene]-5″,4-diyl))bis(4,1phenylene))bis(oxy))dipentanenitrile]",Y
20,"COc1ccc(-c2oc3cc(OC)ccc3c2C2=C(c3c(-c4ccc(OC)cc4)oc4cc(OC)ccc34)C(F)(F)C(F)(F)C2(F)F)cc1 [S140, 3,3′-(perfluorocyclopent-1-ene-1,2-diyl)bis(6-methoxy-2-(4-methoxyphenyl)benzofuran)]",Y
21,"CC(C)(C)c1ccc(-c2cc(C3=C(c4cc(-c5ccc(C(C)(C)C)s5)sc4-c4ccc(OCCCCC(=O)O)cc4)C(F)(F)C(F)(F)C3(F)F)c(-c3ccc(OCCCCC(=O)O)cc3)s2)s1 [S141, 5,5′-(4,4′-(4,4′-(perfluorocyclopent-1-ene-1,2-diyl)bis(5′-tert-butyl-2,2′-bithiophene-5,4-diyl))bis(4,1-phenylene)bis(oxy))dipentanoic acid]",Y
22,"COc1ccc2c(C3=C(c4c(-c5ccc(C)s5)oc5cc(OC)ccc45)C(F)(F)C(F)(F)C3(F)F)c(-c3ccc(C)s3)oc2c1 [S144, 3,3′-(perfluorocyclopent-1-ene-1,2-diyl)bis(6-methoxy-2-(5-methylthiophen-2-yl)benzofuran)]",Y
23,"Cc1cc(-c2sc(-c3sc(C)c(C)c3C)cc2C2=C(c3cc(-c4sc(C)c(C)c4C)sc3-c3cc(C)c(C)s3)C(F)(F)C(F)(F)C2(F)F)sc1C [S148, 4′,4″″-(perfluorocyclopent-1-ene-1,2-diyl)bis(3,4,4″,5,5″-pentamethyl-2,2′:5′,2″-terthiophene)]",Y
24,"Cc1csc(-c2cc(C3=C(c4cc(-c5cc(C)cs5)sc4-c4cc(C)cs4)C(F)(F)C(F)(F)C3(F)F)c(-c3cc(C)cs3)s2)c1 [S149, 3′,3″″-(perfluorocyclopent-1-ene-1,2-diyl)bis(4,4″-dimethyl-2,2′:5′,2″-terthiophene)]",Y
25,"COc1ccc2c(C3=C(c4c(-c5ccc(C(C)(C)C)cc5)oc5cc(OC)ccc45)C(F)(F)C(F)(F)C3(F)F)c(-c3ccc(C(C)(C)C)cc3)oc2c1 [S151, 3,3′-(perfluorocyclopent-1-ene-1,2-diyl)bis(2-(4-(tert-butyl)phenyl)-6-methoxybenzofuran)]",Y
26,"COc1ccc2c(C3=C(c4c(-c5ccc(-c6ccc(C(C)(C)C)s6)s5)oc5cc(OC)ccc45)C(F)(F)C(F)(F)C3(F)F)c(-c3ccc(-c4ccc(C(C)(C)C)s4)s3)oc2c1 [S152, 3,3′-(perfluorocyclopent-1-ene-1,2-diyl)bis(2-(5′-(tert-butyl)-[2,2′-bithiophen]-5-yl)-6-methoxybenzofuran)]",Y
27,"COc1ccc2c(C3=C(c4c(-c5ccc(OC)c(OC)c5)oc5cc(OC)ccc45)C(F)(F)C(F)(F)C3(F)F)c(-c3ccc(OC)c(OC)c3)oc2c1 [S155, 3,3′-(perfluorocyclopent-1-ene-1,2-diyl)bis(2-(3,4-dimethoxyphenyl)-6-methoxybenzofuran)]",Y
28,COCCC[Si](CCCOC)(CCCOC)c1ccc(-c2sc(-c3ccc(C(C)(C)C)s3)cc2C2=C(c3cc(-c4ccc(C(C)(C)C)s4)sc3-c3ccc([Si](CCCOC)(CCCOC)CCCOC)s3)C(F)(F)C(F)(F)C2(F)F)s1 [S158],Y
29,"CCOCCOCCOCCOc1ccc2c(C3=C(c4c(-c5ccc(C(C)(C)C)cc5)oc5cc(OCCOCCOCCOCC)ccc45)C(F)(F)C(F)(F)C3(F)F)c(-c3ccc(C(C)(C)C)cc3)oc2c1 [S161, 3,3′-(perfluorocyclopent-1-ene-1,2-diyl)bis(2-(4-(tert-butyl)phenyl)-6-(2-(2-(2-ethoxyethoxy)ethoxy)ethoxy)benzofuran)]",Y
30,"CC(C)(C)c1ccc(-c2oc3cc(O)ccc3c2C2=C(c3c(-c4ccc(C(C)(C)C)cc4)oc4cc(O)ccc34)C(F)(F)C(F)(F)C2(F)F)cc1 [S162, 3,3′-(perfluorocyclopent-1-ene-1,2-diyl)bis(2-(4-(tert-butyl)phenyl)benzofuran-6-ol)]",Y
